Results: PubChem BioAssay AID1259415 (National Center for Advancing Translational Sciences (NCATS), 2018)
Values joined by “and” are separate entries in the source; they are usually repeats but may differ in a detail not shown here. Equal values may be shown once. About 18,000 (4.4%) of roughly 410,000 compounds were called active. Inconclusive means that the source gave no clear call. Such entries were picked first, then a sample of the others. Cut-off read from the data, not from the text of the source: active = activity change below about -60%; inconclusive = no clear call, values can overlap the other calls; inactive = above about -39%.

experiment: qHTS Assay for inhibitors of the human cytomegalovirus (HCMV); details: HFF cells, HCMV-luciferase reporter, 72 h; at 57.5 µM; active compounds read low
Summary of the method: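 Compounds were evaluated in HFFs infected with an HCMV luciferase reporter virus (MOI 1 PFU/cell). Luciferase in lysates collected 72 h post infection served as the replication measure.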
% is set by controls: 0 for no effect and ±100 for the full control effect.

| Compound | activity change, negative = inhibition |
| --- | --- |
| Oc1ccc(Nc2ncnc3scc(-c4ccccc4)c23)cc1 | active: -63.9% |
| O=C(COc1ccc(Cl)cc1)N1CCN(Cc2ccc([N+](=O)[O-])cc2)CC1 | inconclusive: -48.5% |
| CC1CCCCN1S(=O)(=O)c1ccc(C(=O)Nc2nnc(-c3cccs3)o2)cc1 (centres undefined) | inconclusive: -44.2% |
| C[C@@H]1C=CCCO[C@]12C(=O)N(Cc1ccccc1C(F)(F)F)c1ccccc12 | inconclusive: -48% |
| Cc1ccc2nc(N3C(=O)CNC3=S)sc2c1 | active: -91.6% |
| Cn1c(=O)c2c(ncn2CCOc2ccc(F)cc2)n(C)c1=O | inactive: -31.4% |
| CC(=O)Nc1cccc(NC(=O)c2cccc(OCc3ccccc3)c2)c1 | inconclusive: -55.2% |
| O=C(Nc1cc2c(cc1C(=O)c1ccccc1Cl)OCCO2)c1ccccc1 | inconclusive: -52.7% |
| COc1cccc(NC(=O)Nc2cc(C(=O)O)ccc2C)c1 | inactive: 1.04% |
| O=C(CSc1nnnn1C1CCCCC1)N1CCc2ccccc21 | inconclusive: -44.6% |
| O=[N+]([O-])c1cccc(C=NNc2ccc3ccccc3n2)c1O | active: -96.8% |
| O=C(CSc1nnc2ccc(-c3ccccn3)nn12)Nc1ccccc1 | inconclusive: -51.2% |
| CC(C)OC(=O)c1c(NC(=O)C2c3ccccc3Oc3ccccc32)sc2c1CCCC2 | inactive: -7.92% |
| COc1cccc(N2CCN(C(=O)Nc3ccc4c(c3)NC(=O)CO4)CC2)c1 | inconclusive: -58.8% |
| CC1CCC(Nc2nc3c(-c4cccc(C(F)(F)F)c4)nnn3c3ccccc23)CC1 (centres undefined) | inactive: 35.7% |
| COc1cccc(CNC(=O)c2cc3oc4ccccc4c3n2C)c1OC | inactive: -34.8% |
| Cc1ccccc1NC(=O)C1CCCN1S(=O)(=O)c1ccc2c(c1)n(C)c(=O)c(=O)n2C (centres undefined) | inconclusive: -40.6% |
| O=C(Nc1ccc2c(c1)OCO2)c1ccc2c(c1)OCO2 | inactive: 8.28% |
| COc1cccc(S(=O)(=O)N2C[C@H](O)COC[C@H]3O[C@@H](CC(=O)N4CCN(C)CC4)CC[C@@H]32)c1 | inconclusive: -44.5% |
| N#CCCN(Cc1ccccc1)C(CCc1ccccc1)C(=O)NC1CCCCC1 (centres undefined) | inactive: -3.8% |
| Cc1cc2oc(C(=O)Nc3ccc(S(=O)(=O)Nc4ncccn4)cc3)cc(=O)c2cc1C | inactive: 4.61% |

| Compound | activity change, negative = inhibition |
| --- | --- |
| COC(=O)C1=C(c2cccc(OCc3ccccc3)c2)C[C@@H]2CC[C@H]1N2C(=O)NCCCOC(C)C | inactive: -1.7% |
| CC(=O)[C@H]1CC[C@H]2[C@@H]3CCC4=CC(=O)CC[C@]4(C)[C@H]3[C@H](O)C[C@]12C | inactive: -19.4% |
| CC(C)(O)CC[C@@H](O)[C@](C)(O)[C@H]1CC[C@@]2(O)C3=CC(=O)[C@@H]4C[C@@H](O)[C@@H](O)C[C@]4(C)[C@H]3CC[C@]12C | inconclusive: -57.9% |
| CCOc1ccc(NC(=O)C(Cc2ccccc2)NC(=O)C2CCCCC2)cc1 (centres undefined) | inconclusive: -44.8% |
| NS(=O)(=O)c1cccc(NC(=O)CSc2nc3ccccc3n2-c2ccccc2)c1 | inconclusive: -47.4% |
| CCCNC(=O)NC(=O)CSc1nc2cc(C(=O)OC)ccc2c(=O)n1-c1ccccc1 | inconclusive: -43.6% |
| CCn1c(=O)c2c(nc3n2CCCN3Cc2ccccc2)n(C)c1=O | inactive: 4.31% |
| COc1ccc(S(=O)(=O)N2CCCC(C(=O)NCC3CCCO3)C2)cc1OC (centres undefined) | inactive: 9.56% |
| O=C(O)c1ccc(/C=C2\SC(=S)N(NC(=O)c3ccccc3[N+](=O)[O-])C2=O)cc1 | inconclusive: -43.3% |
| Cc1cc2ccccc2n1CCNC(=O)c1ccccc1 | inconclusive: -56.7% |
| Cc1cccc(N2C(=O)CS(=O)(=O)C23C(=O)N(Cc2c(F)cccc2Cl)c2ccccc23)c1 (centres undefined) | inactive: -24.5% |
| COc1ccc(C(=O)c2[nH]c(N)c(C(=O)NCCc3c[nH]c4ccccc34)c2-c2ccccc2C(F)(F)F)cc1 | inconclusive: -41.3% |
| CSc1cccc(NC(=O)CN2CCN(Cc3ccccc3C)S2(=O)=O)c1 | inconclusive: 0% |
| Cc1ccc(CNC(=O)C2CCN(S(=O)(=O)c3cccs3)CC2)cc1 | inconclusive: -55.7% |
| CCCS(=O)(=O)N1CC(=O)N(c2cc(C)ccc2C)C(C)(C(=O)NC2CCCCCC2)C1 (centres undefined) | inactive: 0% |
| CC(C(=O)Nc1ccc(C#N)cc1)N(C)CC(=O)Nc1ccccc1Br (centres undefined) | inconclusive: -47.4% |
| Cc1cc(=O)oc2cc(NC(=O)c3cc([N+](=O)[O-])ccc3N3CCOCC3)ccc12 | inconclusive: -49.9% |
| COc1cccc(NC(=O)Nc2cc(C)ccc2OC)c1 | inconclusive: -45% |
| O=C1c2ccccc2C(=O)N1CCC1=CCCCC1 | inactive: 38.9% |
| O=[N+]([O-])c1nn(-c2ccccc2)[n+]([O-])c1N1CCN(c2ccccc2)CC1 | inconclusive: -50.4% |
| COc1ccc(C2CC(=O)N3CN(c4ccccc4F)CSC3=C2C#N)cc1OC (centres undefined) | inactive: -5.42% |

Filtered by structure: those above containing four or more nitrogen atoms (15)

| Compound | activity change, negative = inhibition |
| --- | --- |
| CC1CCCCN1S(=O)(=O)c1ccc(C(=O)Nc2nnc(-c3cccs3)o2)cc1 (centres undefined) | inconclusive: -44.2% |
| Cn1c(=O)c2c(ncn2CCOc2ccc(F)cc2)n(C)c1=O | inactive: -31.4% |
| O=C(CSc1nnnn1C1CCCCC1)N1CCc2ccccc21 | inconclusive: -44.6% |
| O=[N+]([O-])c1cccc(C=NNc2ccc3ccccc3n2)c1O | active: -96.8% |
| O=C(CSc1nnc2ccc(-c3ccccn3)nn12)Nc1ccccc1 | inconclusive: -51.2% |
| COc1cccc(N2CCN(C(=O)Nc3ccc4c(c3)NC(=O)CO4)CC2)c1 | inconclusive: -58.8% |
| CC1CCC(Nc2nc3c(-c4cccc(C(F)(F)F)c4)nnn3c3ccccc23)CC1 (centres undefined) | inactive: 35.7% |
| Cc1ccccc1NC(=O)C1CCCN1S(=O)(=O)c1ccc2c(c1)n(C)c(=O)c(=O)n2C (centres undefined) | inconclusive: -40.6% |
| Cc1cc2oc(C(=O)Nc3ccc(S(=O)(=O)Nc4ncccn4)cc3)cc(=O)c2cc1C | inactive: 4.61% |
| NS(=O)(=O)c1cccc(NC(=O)CSc2nc3ccccc3n2-c2ccccc2)c1 | inconclusive: -47.4% |
| CCCNC(=O)NC(=O)CSc1nc2cc(C(=O)OC)ccc2c(=O)n1-c1ccccc1 | inconclusive: -43.6% |
| CCn1c(=O)c2c(nc3n2CCCN3Cc2ccccc2)n(C)c1=O | inactive: 4.31% |
| COc1ccc(C(=O)c2[nH]c(N)c(C(=O)NCCc3c[nH]c4ccccc34)c2-c2ccccc2C(F)(F)F)cc1 | inconclusive: -41.3% |
| CC(C(=O)Nc1ccc(C#N)cc1)N(C)CC(=O)Nc1ccccc1Br (centres undefined) | inconclusive: -47.4% |
| O=[N+]([O-])c1nn(-c2ccccc2)[n+]([O-])c1N1CCN(c2ccccc2)CC1 | inconclusive: -50.4% |

Further entries:

| Compound | activity change, negative = inhibition |
| --- | --- |
| NS(=O)(=O)c1ccc(CNC(=O)c2sccc2-c2ccccc2)cc1 | inactive: 49.9% |
| CCOc1cccc2cc(C(=O)OCC(=O)Nc3c(C)cccc3CC)c(=O)oc12 | inconclusive: -42.5% |
| O=C1OC(CC(=O)N(Cc2nnc(-c3ccccc3Cl)o2)C2CC2)c2ccccc21 (centres undefined) | inconclusive: -45.9% |
| CCC(C(=O)Nc1nc(C)c(C)s1)c1ccccc1 (centres undefined) | inconclusive: -41.5% |
| Cc1c(C)c2ccc(OCC(=O)Nc3ccc(N4CCC(C)CC4)cc3)cc2oc1=O | inconclusive: -51.1% |
| COc1ccc(/C=C2\SC(=O)N(CC(=O)NC3C=CS(=O)(=O)C3)C2=O)cc1 (centres undefined) | inconclusive: 0% |
| CN(C)C=C1C(=O)c2ccccc2C1=O | inactive: 82.9% |
| COc1ccc(-n2c(C)cc(/C=C3\SC(=S)N(Cc4ccco4)C3=O)c2C)cc1 | inconclusive: -54.4% |
| C=CCc1ccccc1OCC(O)CN1CCN(C(=O)OCC)CC1 (centres undefined) | inconclusive: -45.6% |
| CC(CC(=O)Nc1cccc(Cl)c1)c1ccccc1 (centres undefined) | inconclusive: -47% |
| CC(C)c1ccc(NC(=O)c2ccc(NC3=NC4CS(=O)(=O)CC4S3)cc2)cc1 (centres undefined) | inconclusive: -59.5% |
| CC1(C(=O)NC2CCN(Cc3ccccc3)CC2)CCN1Cc1ccc(OC(F)(F)F)cc1 (centres undefined) | inconclusive: -43.1% |
| Clc1cccc(CN2CCCCCC2)c1 | inactive: 28.9% |
| Nc1n[nH]c2cc(=O)n(-c3cccc(C(F)(F)F)c3)nc12 | inconclusive: -52.3% |
| COCC1CCCCN1C(=O)c1ccc2oc(CCc3ccccc3)nc2c1 (centres undefined) | inactive: 33.2% |
| CCc1noc(C)c1C(=O)N1CCN(S(=O)(=O)c2c(C)cc(C)cc2C)CC1 | inconclusive: -52.8% |
| COc1ccccc1C(=O)C1CCCN(C(=O)c2ccc(C(C)=O)s2)C1 (centres undefined) | inconclusive: -53.3% |
| Cc1nn(-c2ccccc2)c(C)c1NC(=O)COc1ccc(Br)cc1Cl | inconclusive: -50.5% |
| CCc1ccc(NC(=O)N2CCN(c3ccc(F)cc3)CC2)cc1 | inconclusive: -47.3% |
| O=C(Nc1nc(-c2ccccc2)cs1)C1CCCCN1S(=O)(=O)c1ccccc1 (centres undefined) | inconclusive: -49.1% |
| O=C(NCC1CCN(c2ccc(S(=O)(=O)N3CCOCC3)cc2)CC1)c1cccc(Cl)c1 | inconclusive: -47.1% |

| Compound | activity change, negative = inhibition |
| --- | --- |
| Cc1cc(NC(=O)C2C3C(=O)N(Cc4ccc(Cl)cc4)C(C(=O)NC4CCCCC4)C34C=CC2(C)O4)no1 (centres undefined) | inconclusive: -57.4% |
| O=[N+]([O-])c1ccccc1NC(=S)N/N=C/c1ccc(O)c(O)c1 | inconclusive: 0% |
| CCOC(=O)N1CCN(C(=O)c2ccc3c(c2)NC(=O)/C(=C/c2ccccc2)S3)CC1 | inconclusive: -50.3% |
| CCOc1ccccc1N1CCN(C(=O)c2csc(C)c2CC)CC1 | inconclusive: -42.5% |
| O=C(Nc1ccc(F)cc1)N1CCCN(c2nccc(C(F)(F)F)n2)CC1 | inconclusive: -55.8% |
| Cc1nnc2n1N=CC=C(c1ccccc1)S2 | active: -99% |
| Cn1c(SCC2CCCO2)nnc1-c1ccc([N+](=O)[O-])cc1 (centres undefined) | inactive: 30.3% |
| CC1CCN(c2ccc(C(=O)O)cc2NS(=O)(=O)c2ccc(Br)cc2)CC1 | inconclusive: -49.6% |
| CC(C)c1ccc(NC(=O)c2ccc(F)c(S(=O)(=O)N3CCc4ccccc4C3)c2)cc1 | inconclusive: 0% |
| CCC(=O)c1ccc(OCC(=O)Nc2cccc(S(=O)(=O)N(C)c3ccccc3)c2)cc1 | inconclusive: -54.5% |
| O=C(COc1ccc([N+](=O)[O-])cc1)Nc1ccc(N2CCCC2)cc1 | inconclusive: -41.3% |
| COc1cc(Cl)c(NS(=O)(=O)c2ccc(-c3cnc(C4CC4)o3)cc2)c(OC)c1 | active: -76% |
| Cc1cccc(C)c1NC(=O)CCCN1C(=O)C(c2ccccc2)Oc2cccnc21 (centres undefined) | inconclusive: -48.5% |
| CCC1(c2ccc(Cl)cc2)NC(=O)N(Cc2ccc(C(=O)OC)cc2)C1=O (centres undefined) | inconclusive: -46.6% |
| Cc1c(Cl)cccc1Nc1ncccc1C(=O)O | inconclusive: -44.7% and inconclusive: -49.6% |
| COc1cccc(-n2c(SCC(=O)NCCc3ccccc3)nnc2-c2ccoc2C)c1 | inconclusive: -45.8% |
| Oc1cccc2cc(Nc3ccccc3)cnc12 | active: -101% |
| O=C(Nc1cccnc1)c1cc(F)cc(F)c1 | inactive: 7.34% |
| CC(C)(CO)CNc1ccn2nccc2n1 | active: -69.6% |
| COc1ccccc1N1CCN(c2ccc(-c3ccccc3)nn2)CC1 | active: -95.6% |
| O=C(Nc1ccc2c(c1)nc1n2CCN(C2CCCCC2)C1)c1ccco1 | inconclusive: -50.1% |

Three structures from above, ordered by heavy-atom count, rising:

| Compound | activity change, negative = inhibition |
| --- | --- |
| Cn1c(SCC2CCCO2)nnc1-c1ccc([N+](=O)[O-])cc1 (centres undefined) | inactive: 30.3% |
| Cc1ccc(CNC(=O)C2CCN(S(=O)(=O)c3cccs3)CC2)cc1 | inconclusive: -55.7% |
| O=C1OC(CC(=O)N(Cc2nnc(-c3ccccc3Cl)o2)C2CC2)c2ccccc21 (centres undefined) | inconclusive: -45.9% |
